# Measurements published in PubChem BioAssay AID651640 (Broad Institute, 2012).
# In all, about 350,000 compounds went through this assay and about 6,000 (1.7%) were called active. Inconclusive means that the source gave no clear call. Such entries were picked first, then a sample of the others. Cut-off read from the data, not from the text of the source: active = CPE inhibition above about 20% (passing the limit was not always enough); inconclusive = no clear call, values can overlap the other calls; tested in BHK-21 cells.
# Experiment: protection of cells from dengue 2 killing – plate reader, single concentration, primary screen (AID 651640);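 note: 0% = median of neutral control wells and 100% = median of positive control wells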
# Conditions: DENV2-infected cells, cytopathic effect rescue, at 9.99 µM, hits give high values
row,SMILES,CPE inhibition
1,CCCCCN(C(=O)CCc1cn(CCCCC)c2ccccc12)c1ccc(Oc2cccnc2)cc1,active: 91.1%
2,C[C@H](CO)N1C[C@H](C)[C@@H](CN(C)CC2CC2)Oc2ccc(NC(=O)C3CCCCC3)cc2CC1=O,inconclusive: 33.2%
3,COc1ccc(S(=O)(=O)Nc2ccc3c(c2)C(=O)N([C@H](C)CO)C[C@H](C)[C@H](CN(C)C)O3)cc1,inactive: 3.36%
4,O=C(NCc1ccccc1)C(c1ccc(C(F)(F)F)cc1)n1c(=O)c(-c2cc3ccccc3[nH]2)nc2ccccc21 (stereo unspecified),active: 38.1%
5,C[C@@H]1CN([C@H](C)CO)C(=O)Cc2cc(NC(=O)Nc3ccc(F)cc3)ccc2O[C@@H]1CN(C)C(=O)NC1CCCCC1,inactive: 2.79%
6,CCOC(=O)C1(C)CCN1C(=O)Cc1ccc(OC)cc1 (stereo unspecified),inconclusive: 46.8%
7,CCN(CC(=O)Nc1ccc(NC(C)=O)cc1)C(=O)c1ccc(Sc2nncn2C)c([N+](=O)[O-])c1,inconclusive: 44.9%
8,CCCCCCSc1cccc(-c2nc3cc(C)ccn3c2NCc2ccccc2)c1,inconclusive: 56.7%
9,CCOc1ccc(S(=O)(=O)Nc2nc3ccccc3nc2Cl)cc1,inconclusive: 32.5%
10,CN(CC(=O)Nc1ccc2c(c1)OCCO2)CC(=O)Nc1ccc(F)c(F)c1F,inconclusive: 35.5%
11,C[C@H]1CN([C@@H](C)CO)S(=O)(=O)c2ccc(C#CCN(C)C)cc2O[C@@H]1CN(C)Cc1ccccc1,inactive: -3.73%
12,O=C(NCCS(=O)(=O)N1CCN(c2cccc(Cl)c2)CC1)c1ccc2c(c1)OCO2,inconclusive: 52.7%
13,CCCC[C@@H]1C=C(C(=O)O)[C@H](c2ccc(C#N)cc2)N1S(=O)(=O)c1ccc(C)cc1,inconclusive: 51.7%
14,CN(C(=O)COC(=O)c1cc(S(=O)(=O)N2CCOCC2)ccc1Cl)C1CCS(=O)(=O)C1 (stereo unspecified),inconclusive: 21.4%
15,C[C@@H]1CN([C@H](C)CO)C(=O)c2cc(NS(=O)(=O)c3ccccc3)ccc2O[C@@H]1CN(C)CC1CC1,inconclusive: 26.4%
16,O=C(Cc1ccccc1)NC[C@H]1N[C@H](CO)[C@@H]1c1ccc(-c2ccccc2)cc1,inactive: 4.15%
17,COC(=O)C(=C/C=C/c1cccnc1)C(=O)OC,inactive: -2.39%
18,CC(=O)Nc1ccc(S(=O)(=O)NCC(=O)OCc2ccccc2)cc1,inconclusive: 32.4%
19,COCCNC(=O)c1ccc2c3n(nc2c1)-c1ccc(Cl)cc1CO3,active: 122%
20,COc1ccc(-c2ccc3n(c2=O)C[C@@H]2[C@@H](CO)[C@H](C(=O)N4CCN(C)CC4)N[C@H]32)cc1,inactive: 6.54%
21,Cc1ccc(C(=O)N2CCN(Cc3ccc4c(c3)OCO4)CC2)cc1S(=O)(=O)N1CCOCC1,inactive: 3.75%
22,CCCCN1C(Nc2ccccc2)=NC[C@@H]1CC(C)C,inconclusive: 23%
23,CO[C@H](CN(C)Cc1cc(F)ccc1F)[C@@H](C)CN([C@@H](C)CO)S(=O)(=O)c1ccc(F)cc1,active: 103%

row,SMILES,CPE inhibition
1,Cc1ccc(S(=O)(=O)N(C)C[C@H]2Oc3c(NC(=O)CCCCCC(=O)Nc4ccccc4N)cccc3C(=O)N([C@@H](C)CO)C[C@H]2C)cc1,inconclusive: 21.9%
2,C[C@H]1CCCCO[C@H](CN(C)CC2CCCCC2)[C@@H](C)CN([C@@H](C)CO)C(=O)c2cc(NC(=O)c3ccccc3)ccc2O1,inactive: -9.95%
3,CCN(CC)c1ccc(/C=N/NC(=O)c2nnn(-c3nonc3N)c2CN(C)C2CCCCC2)cc1,inconclusive: 31.5%
4,COc1cc2c(-c3cc(F)cc(F)c3)c(-c3ccsc3)oc(=O)c2cc1OC,inconclusive: 75.8%
5,C=CC[C@@H](Cc1ccc(F)cc1)C(=O)OC[C@H]1CCCN1C(=O)[C@H](CC=C)CC(=O)N[C@H](CO)Cc1ccccc1,inconclusive: 34.8%
6,N#C[C@H]1[C@@H](c2ccccc2-c2cccc(F)c2)[C@@H](CO)N1C(=O)C1CC1,inconclusive: 38.4%
7,CC(C)=Nc1ccccc1C1COC(=O)C1=N (stereo unspecified),inconclusive: 39.2%
8,COc1ccc(NC(=O)N(C)C[C@H]2Oc3c(NC(=O)C4CCOCC4)cccc3C(=O)N([C@H](C)CO)C[C@@H]2C)cc1,inactive: -4.56%
9,CC(=O)Nc1ccc(/C=N/Nc2nc3ccccc3s2)cc1,inconclusive: 30.1%
10,CCCN(C(=O)Cn1ncc2c([nH]c3ccccc32)c1=O)c1ccccc1C,inconclusive: 65.4%
11,CCCCN(C)C(=O)c1cn(C)c2ccc(S(=O)(=O)N(C)C)cc2c1=O,inconclusive: 23%
12,COc1ccccc1/C=C/C=N/n1c(-c2ccccn2)n[nH]c1=S,inconclusive: 26.8%
13,Cc1ccc(SCCN2CCC(NC(=O)OCc3ccccc3)CCC2=O)cc1 (stereo unspecified),active: 32.3%
14,Cc1cc(C)c(C(=O)C(C)OC(=O)C2=COCCO2)cc1C (stereo unspecified),inconclusive: 70%
15,Cc1ccc(S(=O)(=O)NC(C)C(=O)OCC(=O)Nc2sccc2C(N)=O)cc1 (stereo unspecified),inconclusive: 27.3%
16,COCCNC(=O)/C(C#N)=C/c1c(N2CCCCCC2)nc2ccccn2c1=O,inconclusive: 23.5%
17,Cc1noc(C)c1S(=O)(=O)Nc1ccc2c(c1)C(=O)N([C@@H](C)CO)C[C@@H](C)[C@@H](CN(C)S(=O)(=O)c1c(C)noc1C)OCCCC[C@@H](C)O2,inactive: 3.73%
18,CC(C)NC(=O)Nc1ccc2c(c1)C(=O)N([C@@H](C)CO)C[C@@H](C)[C@@H](CN(C)Cc1ccc(C(F)(F)F)cc1)O2,inactive: -6.17%
19,Cc1noc(C)c1CSc1ccccc1C(=O)O,inconclusive: 33.8%
20,CO[C@H]1CC[C@@H]2CCOc3c(C#N)cccc3C(=O)N(C)C[C@H](OC)[C@@H](C)C(=O)N(C)C[C@@H]1O2,inconclusive: 66.5%
21,COc1cccc(S(=O)(=O)Nc2ccc3c(c2)C(=O)N(C)[C@@H]2CC[C@@H](CC(=O)O)O[C@@H]2CO3)c1,inactive: 8.71%
22,COc1cccc(S(=O)(=O)N[C@H]2CC[C@@H](CC(=O)NCc3ccc(Cl)cc3)O[C@@H]2CO)c1,inconclusive: 32%
23,O=C(Nc1ccc(Cl)cn1)c1ccc(Br)c(S(=O)(=O)N2CCCCC2)c1,inactive: -4.82%

# Some of the entries above, set out differently.
row	SMILES	CPE inhibition
11	CCCCN(C)C(=O)c1cn(C)c2ccc(S(=O)(=O)N(C)C)cc2c1=O	inconclusive: 23%
21	COc1cccc(S(=O)(=O)Nc2ccc3c(c2)C(=O)N(C)[C@@H]2CC[C@@H](CC(=O)O)O[C@@H]2CO3)c1	inactive: 8.71%
22	COc1cccc(S(=O)(=O)N[C@H]2CC[C@@H](CC(=O)NCc3ccc(Cl)cc3)O[C@@H]2CO)c1	inconclusive: 32%
